{"source": "paper PMC5660723", "about": "“Histone Deacetylase Inhibitors Are Protective in Acute but Not in Chronic Models of Ototoxicity” (Frontiers in Cellular Neuroscience, 2017)", "data": [{"system": "outer hair cells (OHCs) of p3 murine organ of Corti explants", "assay": "Protection against gentamicin-induced OHC loss in murine organ of Corti explants", "assay_type": "cell-based, CBA/J mice", "source_text": "The culture procedures have been described in detail (Chen et al., [2009]). In brief, postnatal day 3 (p3) CBA/J pups were euthanized after antisepsis using 70% ethanol. Inner ears were extracted from surrounding tissue and immersed in cold Hank’s balanced salt solution. The lateral wall tissues (stria vascularis and spiral ligament) and the auditory nerve bundle were micro-dissected from the organ of Corti. The explants were placed onto a prepared culture dish containing a 15-μL polymerized drop of rat tail collagen in 1 mL of culture medium consisting of Basal Medium Eagle, 1% serum-free supplement (Invitrogen, Carlsbad, CA, USA), 1% bovine serum albumin, 5 mg/mL glucose, and 10 U/mL penicillin G. After 4 h of incubation (37°C, 5% CO2), an additional 1 mL of medium was added to submerge the explants.\nThe medium was then exchanged for new medium containing a final concentration of 4.5 μM GM with or without various concentrations of the HDAC inhibitors and incubated for 72 h. […]\nExplants were fixed with 4% paraformaldehyde overnight at 4°C and permeabilized for 30 min with 3% Triton X-100 in phosphate-buffered saline (PBS) at room temperature (22–24°C). […] Cell populations were assessed on a Leitz Orthoplan upright microscope equipped for epifluorescence, using a 50× oil-immersion objective. […] Each successive 0.19-mm field was evaluated for the absence of OHCs beginning from the apex and moving down the organ of Corti to the base. The percentage of OHC loss was calculated.\nAfter having established the safe concentration range for the HDAC inhibitors, we explored their efficacy as protective agents against GM-induced OHC loss. […] From the assessment of safe doses and the median effective (protective) doses (ED50) of the three HDAC inhibitors, we calculated the therapeutic index (TI = TD50/ED50) to be highest (safest) for belinostat and lowest for panobinostat (for detailed values see Table 2).", "values": [{"smiles": "O=C(CCCCCCC(=O)Nc1ccccc1)NO", "note": "[SAHA, vorinostat]", "TI (TD50/ED50)": 9.2}, {"smiles": "Cc1[nH]c2ccccc2c1CCNCc1ccc(/C=C/C(=O)NO)cc1", "note": "[panobinostat]", "TI (TD50/ED50)": 3.9}, {"smiles": "O=C(/C=C/c1cccc(S(=O)(=O)Nc2ccccc2)c1)NO", "note": "[belinostat]", "TI (TD50/ED50)": 70}]}]}
